Experimental data: US6043220A, “Threonine-containing protegrins” (IntraBiotics Pharmaceuticals, Inc., priority 1997, dated 2000)
At least one peptide structure holds a part that was inferred or is arguable (an end, a ring closure or a residue).

Tested on: E. coli
Test: In vitro serum availability, MCZ assay, indicator bacteria E. coli
Format: cell-based
Conditions: 50 μg/mL peptide; 90% serum as diluent; activity in serum vs same peptide without serum (100%)
Experimental: Peptide was tested at 50 μg/ml against two different strains of indicator bacteria (E. coli and VRE) both in the presence and absence of serum. For experiments performed in the presence of serum, 90% serum was used as the peptide diluent. Native PG-1 (SEQ ID NO:1) was tested as a control.
Percent availability refers to the activity of the indicated peptide in serum as compared with the activity of the same peptide in the absence of serum (assigned a value of 100%).

SMILES: CC(C)C[C@H](NC(=O)[C@H](CCCNC(=N)N)NC(=O)CNC(=O)CNC(=O)[C@@H](N)CCCNC(=N)N)C(=O)N[C@H]1CSSC[C@@H](C(=O)N[C@H](C(=O)NCC(=O)N[C@@H](CCCNC(=N)N)C(N)=O)C(C)C)NC(=O)[C@H](C(C)C)NC(=O)[C@@H]2CSSC[C@H](NC(=O)[C@H](Cc3ccc(O)cc3)NC1=O)C(=O)N[C@@H](CCCNC(=N)N)C(=O)N[C@@H](CCCNC(=N)N)C(=O)N[C@@H](CCCNC(=N)N)C(=O)N[C@@H](Cc1ccccc1)C(=O)N2 [Native PG-1, RGGRLCYCRRRFCVCVGR-NH2, reference compound]
- In Vitro Serum Availability (%) E. coli: 3%
